This is an account of results in PubChem BioAssay AID485349 (National Center for Advancing Translational Sciences (NCATS), 2010).

The structures appear in SMILES notation. The campaign covered roughly 320,000 compounds. About 620 (0.19%) were called active. The call rests on the fitted dose curve; in most records, active means well fitted activation curve with a large enough effect; inconclusive means small, poorly fitted or top-dose-only effect; inactive means no such curve, though single readings can be large or run the other way. This is a selection; strong and weak results do not stand in their true shares. Where no call is shown, the source filed none.

The nature of the experiment: qHTS Assay for Identifying a Potential Treatment of Ataxia-Telangiectasia. Further: % of control where 0% means no effect; nearly all actives have a fitted effect of over 45% in size. The note with it: […] A-T fibroblasts, KAP-1 phosphorylation AlphaLISA; at 57.5 µM (top of the series) unless noted. The source says: NIH Chemical Genomics Center [NCGC] NIH Molecular Libraries Probe Centers Network [MLPCN] MLPCN Grant: MH089030-01 Assay Submitter (PI): Wei Zheng and Yosef Shiloh Ataxia-telangiectasia (A-T) is a devastating and progressive disease for which, there is no cure. Although A-T is a multisystem disease, it is stereotyped characterized by its neurological symptoms such as truncal ataxia, due to cerebellar cortical degeneration of the Purkinje and granule cells. Other symptoms of A-T are telangiectasias (dilated blood vessels), primary immunodeficiency, marked sensitivity to ionizing radiation (IR), chromosomal instability and predisposition to cancer. The underlying genetic cause of A-T is null mutations in the ATM (A-T mutated) gene. ATM is a nuclear serine/threonine kinase that functions as a master regulator of the cellular responses to double strand breaks (DSBs) in the DNA. Upon activation by DSBs, ATM phosphorylates a plethora of down stream targets, including KAP-1 on […]. KAP-1 phosphorylation occurs shortly in response to DSBs and mediates global chromatin relaxation, which facilitates DSB repair. To screen for small molecules that will compensate for the loss of ATM in cells derived from A-T patients, we monitored KAP-1 phosphorylation as a readout for ATM-like activity using an AlphaLISA assay.
qHTS Assay Protocol: Step,Parameter,Value,Description 1. Cell Plating, 3 ul, 500 cells/well in OPTI-MEM, 1% FBS, 1% Pen/Strep 2. Incubation, 16-24 hr, 37C, 5% CO2, 95% humidity 3. Library compounds, 23 nl, 76.7 - 0.61uM dilution series final concentration 4. Incubation, 60 min, 37C, 5% CO2, 95% humidity 5. Reagent, 1 ul, 1600 ng/ml NCS in PBS + 0.05% BSA + 0.005% Tween 20 6. Incubation, 30 min, 37C, 5% CO2, 95% humidity 7. Reagent, 1 ul, Premixed detection reagents and lysis buffer 8. Reagent, 1 ul, 0.6% Antifoam A 9. Incubation, 6 hr, 25C, 95% humidity 10. Readout, EnVision, EnVision plate reader. AlphaScreen 1536-well protocol Cells were plated using medium-binding white solid-bottom tissue culture treated Kalypsys plates. Multidrop dispense of 3 uL of […] (hTERT immortalized A-T patient fibroblast cells). Detection reagent and lysis buffer was 3.75nM Rab-a-pKAP1 antibody bound to 75 ng/ul AlphaScreen SA donor bead, 3.75 nM Biot-M-a-KAP1 antibody bound to AlphaLISA protein A acceptor bead, 0.5x protease inhibitor cocktail and 0.25x PerkinElmer lysis buffer. EnVision protocol for 1536-well AlphaScreen read (30ms excitation, 100ms read), about 10 min/plate.
As to `CCc1ccc(N2C(=O)NC(=O)/C(=C\C=C\c3ccco3)C2=O)cc1`, the activation was -50%.

As to `Cc1nc2ccccc2c(=O)n1-c1ccc(F)cc1F`, the activation is 53%.

As for `OCC[n+]1c2ccccc2nc2ccc(N3CCOCC3)cc21`, the activation is inactive: -38%.

As to `Cc1ccc(C)c(NP(=O)(Oc2ccccc2)Oc2ccccc2)c1`, the activation is 56.7% [at 57.5 µM, neocarzinostatin DNA damage 30 min before lysis].

In the case of `CCCCn1c(O)c(C(=O)/C=C/c2c[nH]c3ccccc23)c(=O)[nH]c1=O`, the activation turned out to be 63.2%.
